Results taken from PubChem BioAssay AID2685 (National Center for Advancing Translational Sciences (NCATS), 2010).
This is one part of the list. The main result of the screen is listed elsewhere. These columns were measured beside it and carry no call. Compounds called inactive in the main read-out are mostly missing here. The note in brackets gives the kind of curve behind each potency; many fits are weak.

Assay: qHTS Assay for Lipid Storage Modulators in Drosophila S3 Cells;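 for cell number change: cells counted by Cell Tracker Red CMTPX staining in the red channel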
Details: BODIPY lipid droplet fluorescence, 18-24 h; for cell number change: measured here: cell count max response, cells fed with added oleic acid
In short: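 Drosophila S3 cells loaded with oleic acid (400 uM, as added) and compounds at several concentrations; lipid droplets imaged by 488-nm laser-scanning cytometry, 500–530 nm intensity and object ratio to cell channel. Percent activity normalized to 20 uM Triacsin C.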

[1] = measured here: lipid fluorescence (Fed channel) AC50, cells fed with added oleic acid
[2] = measured here: cell number channel AC50, cells fed with added oleic acid

Row | SMILES | cell number change | AC50 [1] | AC50 [2]
1 | O=C(COc1ccccc1)N=C1SC2CS(=O)(=O)CC2N1c1ccccc1 (centres undefined) | 19% | 23.1 µM [rising, partial curve] | –
2 | CCOC(=O)CSc1ncnc2c1cnn2-c1ccc(C)cc1C | 22.7% | 5.8 µM [rising, partial curve] | –
3 | Cc1ccc(N2CC(C(=O)OCc3ccccc3F)CC2=O)cc1 (centres undefined) | -31.7% | 23.1 µM [falling, partial curve] | 0.259 µM [falling, full curve]
4 | CCc1ccc(N=c2c([N+](=O)[O-])nn(-c3ccc4c(c3)OCCO4)n2O)cc1 | -33.6% | 3.26 µM [falling, full curve] | 16.4 µM [falling, partial curve, poor fit]
5 | Cc1nc2c(cnn2-c2ccccc2Cl)c(=O)n1-c1ccc(C(C)C)cc1 | 51.5% | 29.1 µM [falling, single point] | 29.1 µM [rising, single point]
6 | CCOC(=O)c1ccc(NC(=O)CSc2nccn2C)cc1 | 27.1% | 5.8 µM [rising, full curve] | –
7 | Cc1cc(N/N=C/c2cccc([N+](=O)[O-])c2)nc(-n2nc(C)cc2C)n1 | – | – | 6.51 µM [rising, single point]
8 | O=C(Nc1ccc(Cl)c(Cl)c1)c1ccc2c(c1)OCO2 | -18% | 29.1 µM [falling, single point] | –
9 | CCCc1ccc(S(=O)(=O)NCc2nnc(SC)n2C)cc1 | 5.26% | – | –
10 | O=C(Cc1ccc(Br)cc1)N1CCN(c2ccccn2)CC1 | -1.77% | 6.51 µM [rising, single point] | –
11 | O=C(Nc1nnc(SCc2c(Cl)cccc2Cl)s1)C1CC(=O)N(c2ccc3c(c2)OCCO3)C1 (centres undefined) | 13.8% | – | –
12 | CCN(CC)S(=O)(=O)c1ccc(Cl)c(C(=O)Oc2cccnc2)c1 | -2.04% | 29.1 µM [falling, partial curve] | –
13 | CN(c1cccc(NC(=O)c2ccccc2N(C)S(=O)(=O)c2ccccc2)c1)S(C)(=O)=O | -8.47% | 29.1 µM [falling, single point] | –
14 | CCOC(=O)/C(C#N)=C/c1cccc([N+](=O)[O-])c1 | 15% | 29.1 µM [rising, single point] | –
15 | CC(=O)NC(c1ccco1)c1cc(Br)c2cccnc2c1O (centres undefined) | – | 0.164 µM [falling, full curve, poor fit] | –
16 | COc1c(Cl)cc(Cl)cc1C(=O)Nc1ccc(CN2CCOCC2)cc1 | -8.77% | – | –
17 | CC(C)(C)C(=O)NC1CCN(C(=O)N2CCCC2)CC1 | -5.19% | – | –
18 | COC(=O)c1ccccc1NC(=O)CN1C(=O)c2ccccc2S1(=O)=O | -16.5% | 29.1 µM [rising, single point] | –
19 | O=C(NC(=S)N1CCN(c2nc(-c3ccccc3)cs2)CC1)c1cccnc1 | 10.1% | – | –
20 | CCCCC(=O)c1c(O)c2ccccc2oc1=O | 9.88% | – | –
21 | CC/C(=N\N=C1\SC(C)C(=O)N1Cc1ccco1)c1ccccc1 (centres undefined) | 0.471% | 29.1 µM [rising, single point] | –

Row | SMILES | cell number change | AC50 [1] | AC50 [2]
22 | CCN(CC)S(=O)(=O)c1cccc(NC(=O)CCNC(=O)NC23CC4CC(CC(C4)C2)C3)c1 | 34% | – | 16.4 µM [rising, single point]
23 | Cc1ccc2nc(SCC(=O)NCc3ccc4c(c3)OCO4)nc(=O)n2c1 | 88% | – | 9.2 µM [rising, partial curve]
24 | CC1C(C#N)=C(N)OC2=C1C(=O)CC(c1ccccc1)C2 (centres undefined) | -39.6% | 0.0291 µM [falling, full curve, poor fit] | 32.6 µM [falling, single point]
25 | O=C(Cn1cncn1)NCc1cccc(OC(F)F)c1 | 9.52% | – | –
26 | CC(=O)c1cccc(NC(=O)CCc2nc3sc4c(c3c(=O)[nH]2)CCCC4)c1 | 82.2% | – | 16.4 µM [rising, single point]
27 | COCCn1nnnc1CN1CCC(NC(=O)c2ccc(Br)cc2)CC1 | -1.56% | 2.59 µM [falling, partial curve, poor fit] | –
28 | Cc1ccc(S(=O)(=O)Nc2ccc(NC(=O)Nc3ccc(F)cc3F)cc2)cc1 | -33.2% | – | 6.51 µM [falling, partial curve]
29 | Cc1ccc(C)c(C(=O)COC(=O)CNS(=O)(=O)c2ccccc2)c1 | -1.32% | – | –
30 | CCOC(=O)C1CCN(c2nc3ccccc3nc2C(C#N)C(=O)OCCOC)CC1 (centres undefined) | -2.1% | 14.6 µM [rising, single point] | –
31 | COCc1c(C(=O)NC(C)c2ccc(S(N)(=O)=O)cc2)oc2ccccc12 (centres undefined) | 1.68% | 29.1 µM [rising, partial curve, poor fit] | –
32 | Cc1cc(N2CCCC2=O)ccc1S(=O)(=O)NC1CCCCC1 | 5.46% | 0.291 µM [rising, single point] | –
33 | COc1cccc(C(=O)NCC(=O)N/N=C/c2c(C)[nH]c3ccccc23)c1 | -30% | 0.184 µM [falling, full curve, poor fit] | 0.058 µM [falling, full curve, poor fit]
34 | CCCCC(CC)CNC(=O)C1CC=CCC1C(=O)O (centres undefined) | -6.74% | 18.4 µM [rising, single point] | –
35 | CC(C)(C)c1ccc(C(=O)Nc2ccccc2C(=O)NCCN2CCOCC2)cc1 | 22.3% | 29.1 µM [falling, single point] | –
36 | Cc1nnc2ccc(N3CCOCC3)nn12 | -31.3% | 18.4 µM [falling, partial curve] | 4.11 µM [falling, full curve, poor fit]
37 | Cc1ccc(C(C)(C)C)c(OCCCCN2CCCC2)c1 | -6.35% | 6.51 µM [falling, single point] | 0.0058 µM [rising, full curve, poor fit]
38 | CSc1ccc(/C=C(/NC(=O)c2ccc(C)cc2)C(=O)Nc2cccc(F)c2)cc1 | -7.95% | – | 6.51 µM [rising, single point]
39 | O=C(/C=C/c1ccccc1)NC(=S)NNC(=O)c1cnccn1 | 6.11% | – | –
40 | CCCCN(C)CCn1c(=S)[nH]c2ncccc2c1=O | 0.45% | – | –
41 | Cn1c(=O)c2c(ncn2CC(=O)Nc2ccccc2N2CCOCC2)n(C)c1=O | 14.2% | – | –
42 | COC(=O)/C=C/C(=O)Nc1ccc(O)c(Cl)c1 | 2.36% | 0.092 µM [rising, full curve, poor fit] | –

Row | SMILES | cell number change | AC50 [1] | AC50 [2]
43 | N/C(=N\c1nc2ccccc2o1)NC(=O)c1ccc([N+](=O)[O-])cc1 | 46.6% | 29.1 µM [rising, single point] | 0.326 µM [rising, full curve, poor fit]
44 | CC1(C)CC(NC(=O)COc2ccc3ccc(=O)oc3c2)CC(C)(C)N1 | 11.5% | 29.1 µM [rising, single point] | –
45 | Cn1c(COc2ccc(F)cc2)nc2ccccc21 | -5.25% | – | –
46 | CC1CCCN(S(=O)(=O)c2cc3c4c(c2)C(C)C(=O)N4CCC3)C1 (centres undefined) | 8.58% | 29.1 µM [falling, single point] | –
47 | CC(C)c1ccc(NC2CCCN(C(=O)c3cnc4ccccn4c3=O)C2)cc1 (centres undefined) | -2.6% | 0.13 µM [falling, full curve, poor fit] | –
48 | CCOC(=O)CSc1nc2cc(S(=O)(=O)N3CCOCC3)ccc2n1CC | -0.33% | 0.00461 µM [rising, full curve, poor fit] | –
49 | Cc1[nH]c2ccccc2c1C(=O)CN1CCN(C/C=C/c2ccccc2)CC1 | -26% | 29.1 µM [falling, single point] | –
50 | COc1ccc(/C=N/NC(=O)CCn2cnc(-c3ccccc3)c2-c2ccccc2)cc1 | -13.8% | 0.116 µM [falling, full curve, poor fit] | –
51 | CCCn1c(=O)c(C(=O)NNS(=O)(=O)c2ccc(C)cc2)c(O)c2ccccc21 | -52.3% | 14.6 µM [falling, partial curve, poor fit] | 20.6 µM [falling, partial curve, poor fit]
52 | O=C(/C=C/c1cccc(Cl)c1)c1ccc([N+](=O)[O-])o1 | -73.3% | 7.31 µM [falling, partial curve] | 23.1 µM [falling, partial curve, poor fit]
53 | O=C(O)C1CCN(S(=O)(=O)c2cccs2)CC1 | 1.67% | 0.00517 µM [rising, full curve, poor fit] | –
54 | Cn1c(NCCc2ccccc2)cc(=O)n(C)c1=O | -23.4% | 29.1 µM [falling, single point] | –
55 | CCc1cc2ccc(C)c(C)c2nc1SCC(=O)Nc1cc(C)on1 | -4.35% | – | –
56 | O=C(COc1cc2oc(=O)c3c(c2cc1Cl)CCC3)Nc1ccccn1 | 54.2% | 23.1 µM [falling, partial curve] | 29.1 µM [rising, single point]
57 | O=C(Nc1nc(-c2cccs2)cs1)c1cccc(S(=O)(=O)N2CCCCC2)c1 | – | 0.651 µM [rising, full curve] | 0.0731 µM [rising, full curve, poor fit]
58 | COc1ccc(NC(=O)C2CCN(S(=O)(=O)c3cccs3)CC2)cc1OC | 0.0695% | 0.326 µM [falling, full curve] | –
59 | C=CCn1nnnc1-c1cccc(Cl)c1 | 29.3% | – | –
60 | COc1cccc(/C=C2/Sc3ccc(C(=O)NCCCN4CCCC4)cc3NC2=O)c1 | 20.3% | – | 0.00651 µM [rising, full curve, poor fit]
61 | CCc1nnc(NC(=O)CCC(=O)NC2CCCc3ccccc32)s1 (centres undefined) | 12.1% | 0.82 µM [falling, single point] | –
62 | C1CCCCCC(=NNc2nn[nH]n2)CCCCC1 | -3.31% | 7.31 µM [rising, partial curve, poor fit] | –

Record cards, as listed above. Values in the order: cell number change	AC50 [1]	AC50 [2]
`CCCn1c(=O)c(C(=O)NNS(=O)(=O)c2ccc(C)cc2)c(O)c2ccccc21` reads -52.3%	14.6 µM [falling, partial curve, poor fit]	20.6 µM [falling, partial curve, poor fit]
`O=C(O)C1CCN(S(=O)(=O)c2cccs2)CC1` reads 1.67%	0.00517 µM [rising, full curve, poor fit]	–
